# Measured values from patent publication US8372951B2, “Cell penetrating peptides for intracellular delivery” (National Tsing Hua University, priority 2010, dated 2013).
# System: zebrafish larva
# Assay: In vivo delivery in zebrafish larva, fluorescence microscopy
substance,measurement,setting,value
"FITC-ECP(32-41): fluorochrome-tagged peptide, FITC-labeled ECP(32-41) (SEQ ID NO: 1) (NYRWRCKNQN; N-terminal FITC label; ECP(32-41))",fluorescent signal in larva after microinjection,"72 hpf larva, 5 μM injected into circulation, 2 days after injection",clearly detected
same,fluorescent signal inside larva after soaking,"7 day larva soaked in water with 1 μM for 1 day, then fresh water for two days",Evident fluorescent signal inside the larva
